Test results from the supplement of paper PMC12067093, “Discovery and optimisation of a covalent ligand for TRIM25 and its application to targeted protein ubiquitination” (Chemical Science, 2025).
This is one part of the list.

The chains behind the UniProt entries cited, without tags or fusion partners. Where a name states a change or a piece, a line headed by the entry shows the natural chain unless it says otherwise.
UniProt Q15019: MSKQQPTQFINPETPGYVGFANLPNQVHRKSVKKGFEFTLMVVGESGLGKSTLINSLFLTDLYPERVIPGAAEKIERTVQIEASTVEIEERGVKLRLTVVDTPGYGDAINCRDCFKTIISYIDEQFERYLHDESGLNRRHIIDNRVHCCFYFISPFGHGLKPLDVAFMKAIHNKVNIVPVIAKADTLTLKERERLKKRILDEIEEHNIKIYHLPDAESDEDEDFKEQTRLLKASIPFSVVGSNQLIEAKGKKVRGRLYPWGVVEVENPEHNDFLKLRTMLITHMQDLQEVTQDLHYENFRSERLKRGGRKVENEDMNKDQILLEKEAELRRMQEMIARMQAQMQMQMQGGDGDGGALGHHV
UniProt Q9UHD8: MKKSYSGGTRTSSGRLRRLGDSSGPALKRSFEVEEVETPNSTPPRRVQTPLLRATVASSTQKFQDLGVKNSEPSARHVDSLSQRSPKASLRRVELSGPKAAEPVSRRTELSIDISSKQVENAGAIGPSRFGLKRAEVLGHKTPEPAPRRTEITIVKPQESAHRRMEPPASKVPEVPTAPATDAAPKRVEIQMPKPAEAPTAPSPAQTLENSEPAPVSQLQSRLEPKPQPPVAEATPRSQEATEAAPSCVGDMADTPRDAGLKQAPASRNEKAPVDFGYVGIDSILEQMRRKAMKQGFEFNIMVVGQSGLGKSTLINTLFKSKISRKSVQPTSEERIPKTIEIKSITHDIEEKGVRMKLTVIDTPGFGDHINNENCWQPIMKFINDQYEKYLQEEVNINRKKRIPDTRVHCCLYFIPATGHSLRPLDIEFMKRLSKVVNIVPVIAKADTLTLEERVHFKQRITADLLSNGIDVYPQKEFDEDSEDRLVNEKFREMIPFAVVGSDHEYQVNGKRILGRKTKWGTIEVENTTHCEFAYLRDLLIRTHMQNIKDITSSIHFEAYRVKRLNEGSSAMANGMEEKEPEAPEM
UniProt Q96BR1: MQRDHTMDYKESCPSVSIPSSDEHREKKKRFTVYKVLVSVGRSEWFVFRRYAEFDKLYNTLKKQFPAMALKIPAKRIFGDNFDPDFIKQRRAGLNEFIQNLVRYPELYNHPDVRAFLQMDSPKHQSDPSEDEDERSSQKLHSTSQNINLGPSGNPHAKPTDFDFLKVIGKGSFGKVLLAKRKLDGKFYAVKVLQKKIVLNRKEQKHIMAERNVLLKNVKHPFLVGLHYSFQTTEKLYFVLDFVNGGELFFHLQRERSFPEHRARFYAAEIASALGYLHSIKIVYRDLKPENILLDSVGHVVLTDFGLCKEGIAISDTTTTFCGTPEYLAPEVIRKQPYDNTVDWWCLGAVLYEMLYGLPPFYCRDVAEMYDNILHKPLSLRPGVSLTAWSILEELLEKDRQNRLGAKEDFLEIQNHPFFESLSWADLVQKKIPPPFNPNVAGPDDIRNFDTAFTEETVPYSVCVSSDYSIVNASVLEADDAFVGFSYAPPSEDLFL
UniProt Q9UPS6, whole entry, looked up: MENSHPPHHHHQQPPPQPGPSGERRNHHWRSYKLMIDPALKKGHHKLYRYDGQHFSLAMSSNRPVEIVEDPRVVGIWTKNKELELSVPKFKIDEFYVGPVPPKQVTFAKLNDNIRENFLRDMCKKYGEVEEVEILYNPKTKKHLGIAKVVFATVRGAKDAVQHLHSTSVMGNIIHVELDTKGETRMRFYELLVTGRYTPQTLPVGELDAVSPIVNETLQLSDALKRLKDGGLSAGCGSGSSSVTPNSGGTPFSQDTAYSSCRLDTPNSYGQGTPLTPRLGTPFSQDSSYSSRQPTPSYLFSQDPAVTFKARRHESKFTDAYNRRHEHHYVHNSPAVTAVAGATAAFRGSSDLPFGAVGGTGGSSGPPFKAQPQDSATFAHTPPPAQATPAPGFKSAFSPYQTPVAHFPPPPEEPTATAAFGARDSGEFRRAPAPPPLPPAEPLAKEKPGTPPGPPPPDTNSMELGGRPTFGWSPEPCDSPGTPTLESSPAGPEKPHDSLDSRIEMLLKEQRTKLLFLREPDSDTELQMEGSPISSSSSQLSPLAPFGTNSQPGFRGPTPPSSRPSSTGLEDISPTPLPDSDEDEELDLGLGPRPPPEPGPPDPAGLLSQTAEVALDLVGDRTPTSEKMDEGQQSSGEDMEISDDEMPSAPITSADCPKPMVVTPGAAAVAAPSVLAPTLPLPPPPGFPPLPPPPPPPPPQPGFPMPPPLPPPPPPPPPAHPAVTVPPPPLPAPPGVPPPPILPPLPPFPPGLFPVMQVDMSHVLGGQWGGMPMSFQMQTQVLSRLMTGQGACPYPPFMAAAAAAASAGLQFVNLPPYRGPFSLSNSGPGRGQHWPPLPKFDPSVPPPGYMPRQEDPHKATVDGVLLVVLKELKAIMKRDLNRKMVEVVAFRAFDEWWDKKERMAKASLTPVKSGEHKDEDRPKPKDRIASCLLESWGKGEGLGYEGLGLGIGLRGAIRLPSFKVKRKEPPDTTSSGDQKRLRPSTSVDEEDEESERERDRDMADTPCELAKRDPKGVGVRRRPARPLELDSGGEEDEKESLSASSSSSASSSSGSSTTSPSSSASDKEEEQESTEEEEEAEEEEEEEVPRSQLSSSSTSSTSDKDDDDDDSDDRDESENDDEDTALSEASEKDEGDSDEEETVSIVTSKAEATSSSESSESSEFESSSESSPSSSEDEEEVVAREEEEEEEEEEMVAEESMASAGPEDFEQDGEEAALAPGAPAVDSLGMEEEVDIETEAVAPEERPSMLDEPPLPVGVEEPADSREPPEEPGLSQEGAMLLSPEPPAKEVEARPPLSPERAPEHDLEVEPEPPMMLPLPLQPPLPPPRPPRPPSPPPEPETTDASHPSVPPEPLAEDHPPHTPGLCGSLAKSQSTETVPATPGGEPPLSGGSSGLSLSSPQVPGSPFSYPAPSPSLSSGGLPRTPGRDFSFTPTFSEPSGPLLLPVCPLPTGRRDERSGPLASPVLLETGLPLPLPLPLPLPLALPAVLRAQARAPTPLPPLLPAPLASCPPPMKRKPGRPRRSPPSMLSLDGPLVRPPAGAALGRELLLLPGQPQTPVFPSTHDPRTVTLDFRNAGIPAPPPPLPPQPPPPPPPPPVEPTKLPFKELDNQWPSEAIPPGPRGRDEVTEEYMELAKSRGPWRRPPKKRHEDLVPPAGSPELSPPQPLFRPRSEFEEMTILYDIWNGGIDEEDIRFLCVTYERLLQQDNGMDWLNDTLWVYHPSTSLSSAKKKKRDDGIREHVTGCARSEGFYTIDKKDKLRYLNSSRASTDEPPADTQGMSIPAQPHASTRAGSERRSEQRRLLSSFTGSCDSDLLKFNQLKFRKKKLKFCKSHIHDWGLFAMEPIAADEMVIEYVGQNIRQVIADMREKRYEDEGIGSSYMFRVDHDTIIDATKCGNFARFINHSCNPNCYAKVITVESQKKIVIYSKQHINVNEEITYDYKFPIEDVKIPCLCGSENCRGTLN
UniProt Q12874: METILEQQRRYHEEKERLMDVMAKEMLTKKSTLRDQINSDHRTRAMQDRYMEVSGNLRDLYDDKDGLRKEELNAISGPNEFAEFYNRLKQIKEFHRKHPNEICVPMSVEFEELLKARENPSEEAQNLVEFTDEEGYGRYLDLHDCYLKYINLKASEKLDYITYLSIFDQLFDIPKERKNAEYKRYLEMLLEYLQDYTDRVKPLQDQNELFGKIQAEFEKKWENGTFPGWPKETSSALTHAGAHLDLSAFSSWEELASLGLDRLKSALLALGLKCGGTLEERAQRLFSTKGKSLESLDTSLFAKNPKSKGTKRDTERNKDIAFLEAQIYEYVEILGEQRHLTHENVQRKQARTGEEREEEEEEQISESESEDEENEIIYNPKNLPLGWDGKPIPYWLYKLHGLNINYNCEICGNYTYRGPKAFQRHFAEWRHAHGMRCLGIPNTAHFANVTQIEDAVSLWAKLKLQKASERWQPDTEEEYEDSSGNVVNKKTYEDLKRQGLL
UniProt Q9NR46: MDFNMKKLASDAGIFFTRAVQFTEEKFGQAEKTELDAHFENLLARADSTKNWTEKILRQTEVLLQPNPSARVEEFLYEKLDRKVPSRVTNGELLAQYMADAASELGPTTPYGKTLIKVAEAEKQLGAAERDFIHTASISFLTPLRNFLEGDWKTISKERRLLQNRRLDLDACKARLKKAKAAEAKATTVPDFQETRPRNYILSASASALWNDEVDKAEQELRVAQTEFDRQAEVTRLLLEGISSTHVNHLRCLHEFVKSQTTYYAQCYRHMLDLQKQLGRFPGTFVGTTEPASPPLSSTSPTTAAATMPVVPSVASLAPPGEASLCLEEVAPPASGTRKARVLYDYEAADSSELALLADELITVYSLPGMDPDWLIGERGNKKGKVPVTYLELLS
UniProt Q149N8: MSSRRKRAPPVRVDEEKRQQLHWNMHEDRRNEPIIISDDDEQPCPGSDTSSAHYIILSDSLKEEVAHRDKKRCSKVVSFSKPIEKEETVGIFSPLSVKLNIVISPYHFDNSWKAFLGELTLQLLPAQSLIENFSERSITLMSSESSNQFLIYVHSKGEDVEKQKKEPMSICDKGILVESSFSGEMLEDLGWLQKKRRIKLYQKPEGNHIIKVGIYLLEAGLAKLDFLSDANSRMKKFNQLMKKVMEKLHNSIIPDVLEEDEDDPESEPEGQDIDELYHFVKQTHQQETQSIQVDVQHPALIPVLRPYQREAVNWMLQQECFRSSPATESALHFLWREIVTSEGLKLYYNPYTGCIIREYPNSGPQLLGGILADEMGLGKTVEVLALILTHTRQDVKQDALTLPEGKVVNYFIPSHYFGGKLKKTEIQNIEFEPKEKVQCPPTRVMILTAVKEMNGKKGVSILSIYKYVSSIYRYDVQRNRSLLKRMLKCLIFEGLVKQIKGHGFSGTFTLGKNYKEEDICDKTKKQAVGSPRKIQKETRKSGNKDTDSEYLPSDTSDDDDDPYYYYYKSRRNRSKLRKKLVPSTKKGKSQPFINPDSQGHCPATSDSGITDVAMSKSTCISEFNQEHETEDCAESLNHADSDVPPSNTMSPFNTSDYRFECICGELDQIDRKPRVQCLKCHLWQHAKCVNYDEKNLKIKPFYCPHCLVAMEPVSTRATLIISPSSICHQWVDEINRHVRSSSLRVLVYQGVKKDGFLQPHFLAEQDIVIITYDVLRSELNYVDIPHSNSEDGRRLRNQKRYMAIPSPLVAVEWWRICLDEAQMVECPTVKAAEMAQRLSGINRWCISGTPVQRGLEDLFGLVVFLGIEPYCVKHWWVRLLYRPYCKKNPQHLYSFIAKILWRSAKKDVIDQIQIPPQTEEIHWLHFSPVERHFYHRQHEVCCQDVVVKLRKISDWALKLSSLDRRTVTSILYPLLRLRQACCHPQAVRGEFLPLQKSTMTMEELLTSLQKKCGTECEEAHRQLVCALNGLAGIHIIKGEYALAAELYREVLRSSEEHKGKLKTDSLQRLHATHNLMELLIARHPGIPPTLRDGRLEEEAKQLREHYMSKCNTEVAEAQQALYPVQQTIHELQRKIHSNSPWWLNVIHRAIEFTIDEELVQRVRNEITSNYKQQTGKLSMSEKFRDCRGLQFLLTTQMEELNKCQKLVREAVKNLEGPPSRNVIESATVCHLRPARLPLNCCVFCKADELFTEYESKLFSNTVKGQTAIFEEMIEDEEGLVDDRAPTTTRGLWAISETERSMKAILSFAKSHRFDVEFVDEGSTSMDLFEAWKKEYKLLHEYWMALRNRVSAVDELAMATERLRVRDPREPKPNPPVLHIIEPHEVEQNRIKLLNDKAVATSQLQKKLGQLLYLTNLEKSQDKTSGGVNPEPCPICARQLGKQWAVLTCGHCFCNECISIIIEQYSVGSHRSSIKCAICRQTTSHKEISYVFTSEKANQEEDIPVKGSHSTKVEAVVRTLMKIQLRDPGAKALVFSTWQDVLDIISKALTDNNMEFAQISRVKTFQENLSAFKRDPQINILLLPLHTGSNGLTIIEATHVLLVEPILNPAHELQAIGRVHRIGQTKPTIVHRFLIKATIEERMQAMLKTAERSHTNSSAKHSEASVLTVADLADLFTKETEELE
UniProt P78324, whole entry, looked up: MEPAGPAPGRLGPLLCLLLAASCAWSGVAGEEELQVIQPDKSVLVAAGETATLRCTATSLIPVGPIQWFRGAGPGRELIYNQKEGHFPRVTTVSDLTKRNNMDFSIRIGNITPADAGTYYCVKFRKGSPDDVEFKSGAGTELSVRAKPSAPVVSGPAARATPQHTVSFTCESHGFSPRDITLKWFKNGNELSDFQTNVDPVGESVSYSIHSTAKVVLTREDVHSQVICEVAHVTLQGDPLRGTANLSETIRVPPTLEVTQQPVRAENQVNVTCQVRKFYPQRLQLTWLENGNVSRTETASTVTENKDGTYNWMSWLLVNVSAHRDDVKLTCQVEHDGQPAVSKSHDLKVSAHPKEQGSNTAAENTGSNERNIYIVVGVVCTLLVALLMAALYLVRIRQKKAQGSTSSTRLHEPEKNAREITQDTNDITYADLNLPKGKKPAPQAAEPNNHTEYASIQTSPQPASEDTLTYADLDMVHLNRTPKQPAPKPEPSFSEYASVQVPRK

Compound: CC1Cc2ccccc2N1C(=O)C1CCCN(C1)C(=O)CCl (mixture of isomers) [TRIM25 ligand 11 (diastereomer mixture)]
Experiment: probe-labelled cysteine peptide fold change vs DMSO (competition) (log2 fold change); higher = less target engagement (more negative = stronger competition)
Conditions: THP-1, incubation time: 4 h
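Also: competitive chemoproteomic profiling in live THP-1 cells with an iodoacetamide desthiobiotin (IA-DTB) probe, comparing probe-labelled peptide intensities in compound-treated cells against DMSO-treated controls.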

Target	probe-labelled cysteine peptide fold change (10 µM)	probe-labelled cysteine peptide fold change (50 µM)
SERPINB10_P48595_68_CDPESEK (UniProt P48595)	-0.0835	-0.134
SETD2_Q9BYW2_1516_AQGEIACGEDCLNR (UniProt Q9BYW2)	0.0992	-0.0102
SETDB1_Q15047_582_LFYLPHVCSYTCLSR (UniProt Q15047)	-0.142	-0.048
SETX_Q7Z333_884_NEELVIFSFHENNCK (UniProt Q7Z333)	0.05	-0.287
SF1_Q15637_279_SITNTTVCTK (UniProt Q15637)	0.0565	0.0538
SLC22A15_Q8IZD6_438_NVGLGTCSMFSR (UniProt Q8IZD6)	0.181	0.0289
SEPT2_Q15019_148+149_VHCCFYFISPFGHGLKPLDVAFMK (UniProt Q15019)	-0.0977	-0.066
SLC25A10_Q9UBX3_240_GEYQGVFHCAVETAK (UniProt Q9UBX3)	0.0427	0.11
SIN3A_Q96ST3_1063_AEQLMSDENCFK (UniProt Q96ST3)	0.212	0.199
SEPT9_Q9UHD8_248_SQEATEAAPSCVGDMADTPR (UniProt Q9UHD8)	0.0287	-0.157
SGTA_O43765_148_LGNYAGAVQDCER (UniProt O43765)	-0.0452	0.109
SGK3_Q96BR1_308_DLKPENILLDSVGHVVLTDFGLCK (UniProt Q96BR1)	0.137	-0.0915
SH3GL1_Q99961_277_EPFDLGEPEQSNGGFPCTTAPK (UniProt Q99961)	0.0065	-0.144
SIRT1_Q96EB6_371_IIQCHGSFATASCLICK (UniProt Q96EB6)	0.0628	-0.152
SLC25A5_P05141_257_GTDIMYTGTLDCWR (UniProt P05141)	0.0551	-0.0251
SERPINB6_P35237_350_FCADHPFLFFIQHSK (UniProt P35237)	-0.131	-0.0851
SH3GLB1_Q9Y371_121_CGETQKR (UniProt Q9Y371)	-0.113	-0.0123
SF3B3_Q15393_547_CAVNQR (UniProt Q15393)	-0.0751	0.161
SIPA1L3_O60292_597_DALEYVIPELNIHCLR (UniProt O60292)	0.292	0.0602
SGSM3_Q96HU1_517_DEHCWVGELNGLR (UniProt Q96HU1)	0.0468	0.194
SHC1_P29353_212_KPCSRPLSSILGR (UniProt P29353)	-0.185	-0.0448

Target	probe-labelled cysteine peptide fold change (10 µM)	probe-labelled cysteine peptide fold change (50 µM)
SF3B1_O75533_933_VKPYLPQICGTVLWR (UniProt O75533)	-0.152	-0.119
SETD1B_Q9UPS6_1746_EHVTGCAR (UniProt Q9UPS6)	-0.0539	-0.0287
SIPA1_Q96FS4_307_LLEHVAPQLSPSCLR (UniProt Q96FS4)	0.0452	-0.356
SETDB1_Q15047_329_TWEDIEDISCR (UniProt Q15047)	0.24	0.218
SLC25A1_P53007_262_NTWDCGLQILK (UniProt P53007)	-0.0206	0.157
SF3A3_Q12874_408_LHGLNINYNCEICGNYTYR (UniProt Q12874)	-0.209	-0.00794
SLC15A4_Q8N697_269_ILTYSCCSQK (UniProt Q8N697)	-0.00859	-0.114
SERPINB6_P35237_36_NVFFSPMSMSCALAMVYMGAK (UniProt P35237)	-0.325	-0.259
SF3B3_Q15393_340_YFDTVPVAAAMCVLK (UniProt Q15393)	-0.126	-0.183
SLC12A4_Q9UP95_817_CTTAAHLALLVPK (UniProt Q9UP95)	0.23	0.117
SETX_Q7Z333_1398_AGSHTAQNSDIFVPESDRSDYNCTGGTEVLANSNRK (UniProt Q7Z333)	-0.152	-0.392
SF3B1_O75533_1244_VAIGPCR (UniProt O75533)	-0.0327	0.264
SEPT9_Q9UHD8_410+411_VHCCLYFIPATGHSLRPLDIEFMK (UniProt Q9UHD8)	-0.00179	0.122
SERGEF_Q9UGK8_73_ITGGGGHSAVVTDGGDLFVCGLNK (UniProt Q9UGK8)	-0.0306	-0.118
SLAIN2_Q9P270_165_QVLDYPSPDVECAK (UniProt Q9P270)	-0.02	-0.227
SETX_Q7Z333_2630_CDDPEEELCHR (UniProt Q7Z333)	0.0321	-0.198
SETD2_Q9BYW2_836_ISSNSFMNVHLESKPVICDSR (UniProt Q9BYW2)	-0.0203	-0.186
SEPT6_Q14141_42_SVSQGFCFNILCVGETGLGK (UniProt Q14141)	0.182	0.17
SETD1B_Q9UPS6_1448_DFSFTPTFSEPSGPLLLPVCPLPTGR (UniProt Q9UPS6)	-0.127	-0.387
SF3B1_O75533_1250_MLQYCLQGLFHPAR (UniProt O75533)	-0.129	0.0917
SLC25A10_Q9UBX3_23_WYFGGLASCGAACCTHPLDLLK (UniProt Q9UBX3)	0.196	0.236

Target	probe-labelled cysteine peptide fold change (10 µM)	probe-labelled cysteine peptide fold change (50 µM)
SIL1_Q9H173_408_VLQTLGVLLTTCR (UniProt Q9H173)	0.0793	0.848
SGK3_Q96BR1_13_ESCPSVSIPSSDEHR (UniProt Q96BR1)	-0.131	-0.191
SEPT11_Q9NVA2_46_STSQGFCFNILCVGETGIGK (UniProt Q9NVA2)	-0.0542	-0.0173
SHMT1_P34896_384_VLEACSIACNK (UniProt P34896)	-0.0385	-0.0507
SHMT2_P34897_91_AALEALGSCLNNK (UniProt P34897)	0.0184	-0.00736
SIRT2_Q8IXJ6_221_CEDCQSLVKPDIVFFGESLPAR (UniProt Q8IXJ6)	0.0619	0.0195
SLC27A1_Q6PCB7_204_FCSGDLGPEGILPDTHLLDPLLK (UniProt Q6PCB7)	0.156	0.0995
SEPT11_Q9NVA2_41+46_STSQGFCFNILCVGETGIGK (UniProt Q9NVA2)	-0.0574	-0.0148
SKP1_P63208_160_ENQWCEEK (UniProt P63208)	-0.0605	-0.129
SLC12A2_P55011_791_NFRPQCLVMTGAPNSRPALLHLVHDFTK (UniProt P55011)	-0.125	0.0114
SETD2_Q9BYW2_1125_ACPQTDK (UniProt Q9BYW2)	-0.00464	-0.00536
SF3A3_Q12874_437_CLGIPNTAHFANVTQIEDAVSLWAK (UniProt Q12874)	0.185	-0.0203
SLC25A1_P53007_262_NTWDCGLQILKK (UniProt P53007)	-0.253	-0.113
SLC25A3_Q00325-2_67+75_YYALCGFGGVLSCGLTHTAVVPLDLVK (UniProt Q00325)	-0.011	0.117
SIRT1_Q96EB6_398_CPADEPLAIMKPEIVFFGENLPEQFHR (UniProt Q96EB6)	-0.0824	-0.129
SETD2_Q9BYW2_900_CGENTSPVLDAVLK (UniProt Q9BYW2)	-0.000181	0.0428
SERPINB8_P50452_59_GSTAAQMSQALCLYK (UniProt P50452)	0.0779	-0.0697
SFMBT1_Q9UHJ3_365_QCGAEAAPQR (UniProt Q9UHJ3)	0.0543	-0.153
SLC25A1_P53007_70_GIGDCVR (UniProt P53007)	0.0162	0.108
SLC25A12_O75746_375_NSFDCFK (UniProt O75746)	0.167	0.181
SETDB1_Q15047_385_RCEWIYR (UniProt Q15047)	0.156	0.176

Target	probe-labelled cysteine peptide fold change (10 µM)	probe-labelled cysteine peptide fold change (50 µM)
SETD2_Q9BYW2_736_DLDDTCMLHK (UniProt Q9BYW2)	-0.223	-0.361
SFXN2_Q96NB2_189_WVPFAAVAAANCVNIPMMR (UniProt Q96NB2)	0.408	-0.0256
SH3GLB2_Q9NR46_252_CLHEFVK (UniProt Q9NR46)	0.0704	0.0561
SF3B6_Q9Y3B4_74_NACDHLSGFNVCNR (UniProt Q9Y3B4)	0.0202	-0.0488
SEPT9_Q9UHD8_411_VHCCLYFIPATGHSLRPLDIEFMK (UniProt Q9UHD8)	-0.0102	0.137
SEPT2_Q15019_148_VHCCFYFISPFGHGLK (UniProt Q15019)	0.25	0.327
SFMBT1_Q9UHJ3_659_IGRPPGGHSNLACALK (UniProt Q9UHJ3)	-0.102	-0.0794
SGK3_Q96BR1_13_ESCPSVSIPSSDEHREK (UniProt Q96BR1)	-0.11	-0.175
SHPRH_Q149N8_1435_TSGGVNPEPCPICAR (UniProt Q149N8)	0.0553	-0.0373
SETDB1_Q15047_1207_QFYDGEESCYIIDAK (UniProt Q15047)	-0.0777	-0.0706
SHCBP1_Q8NEM2_271_SSLSNCNSDSEQENISMVEGLK (UniProt Q8NEM2)	-0.0856	-0.0915
SEPT5_Q99719_300_DVTCDVHYENYR (UniProt Q99719)	0.188	0.171
SETD1B_Q9UPS6_1912_FINHSCNPNCYAK (UniProt Q9UPS6)	-0.127	0.109
SIRPA_P78324_170_ATPQHTVSFTCESHGFSPR (UniProt P78324)	0.355	0.211
SHPRH_Q149N8_1110_CNTEVAEAQQALYPVQQTIHELQR (UniProt Q149N8)	-0.335	-0.156
SH2B2_O14492_333_VASCSCELLTDAVDLPRPPETTAVGAVVTAPHSR (UniProt O14492)	0.196	0.186
SHMT1_P34896_68_AVLEALGSCLNNK (UniProt P34896)	0.00575	-0.024
SKIV2L_Q15477_877_VFTTLVLCDKPLSQDPQDR (UniProt Q15477)	0.105	0.0401
SFMBT1_Q9UHJ3_659_IGRPPGGHSNLACALKK (UniProt Q9UHJ3)	-0.209	-0.242
SF3B6_Q9Y3B4_74+83_NACDHLSGFNVCNR (UniProt Q9Y3B4)	0.228	0.0789

6 entries from above in another layout:
Target,probe-labelled cysteine peptide fold change (10 µM),probe-labelled cysteine peptide fold change (50 µM)
SH3GLB2_Q9NR46_252_CLHEFVK (UniProt Q9NR46),0.0704,0.0561
SETDB1_Q15047_1207_QFYDGEESCYIIDAK (UniProt Q15047),-0.0777,-0.0706
SETD1B_Q9UPS6_1912_FINHSCNPNCYAK (UniProt Q9UPS6),-0.127,0.109
SIRPA_P78324_170_ATPQHTVSFTCESHGFSPR (UniProt P78324),0.355,0.211
SKIV2L_Q15477_877_VFTTLVLCDKPLSQDPQDR (UniProt Q15477),0.105,0.0401
SFMBT1_Q9UHJ3_659_IGRPPGGHSNLACALKK (UniProt Q9UHJ3),-0.209,-0.242
